Reference: PubChem BioAssay AID504444 (National Center for Advancing Translational Sciences (NCATS), 2011)
In all, about 360,000 compounds went through this assay and about 7,500 (2.1%) were called active. Inconclusive means that the source gave no clear call. Such entries were picked first, then a sample of the others. Calls follow the shape of the dose curve; as a rule, active = well fitted inhibition curve with a large enough effect; inconclusive = small, poorly fitted or top-dose-only effect, or effect the other way; inactive = flat fitted curve, though single readings scatter. Potencies beside an inconclusive call are fits to weak or partial responses and may not hold up.

Assay: Nrf2 qHTS screen for inhibitors; also: nearly all actives have a fitted effect of over 60% in size
Details: A549 ARE-Fluc reporter, luciferase luminescence, 18-24 h; activity change, negative = inhibition: at 46 µM (top of the series)
Procedure, shortened: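 In this cell-based qHTS, ARE-driven firefly luciferase in A549 cells reports Nrf2 activity; the luminescent signal after BugLite lysis is the measured value, with a prior CellTiter-Fluor read for cell health.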
% is scaled to controls: 0 for no effect and ±100 for the full control effect; potency is read from the fitted curve at half-maximal effect.

Compound | Potency | activity change, negative = inhibition
O=C(C[C@H]1C[C@H](C(=O)N2CCCCC2)[C@@]2(CCc3ccccc3)c3[nH]c4ccc(Cl)cc4c3CCN2C1=O)NCCc1ccccn1 | active: 20.6 µM | 
CNc1ccccc(C(=O)/C=C/c2ccccc2OC)c1=O | inconclusive: 29.1 µM [falling, single point] | 
Cc1nc2cc(NC(=O)Nc3ccccc3Cl)ccc2n1C | inconclusive: 0.82 µM [activator, full curve, poor fit] | 
O=C1NCCOC(=O)[C@H](Cc2ccc(F)cc2)C/C=C\C[C@@H]1CC(=O)N(CCO)Cc1ccccc1 | inconclusive: 20.6 µM [falling, single point] | 
CCC(=O)N1CCc2cc(Br)cc(S(=O)(=O)CCC(=O)Nc3ccc(Cl)cc3)c21 |  | inactive: -13.5% [at 9.27 µM]
Cc1cccc(C)c1NC(=O)CCC(=O)N1Cc2ccccc2Oc2ncccc21 | inconclusive: 25.9 µM [activator, single point] | 
CCOC(=O)c1cc(-c2ccc(C)cc2)n(CCC(=O)NCCc2ccc(C)cc2)c1C | inconclusive: 20.6 µM [falling, single point] | 
NC1=NC[C@H](c2ccccc2)N1CCCCC1CCCCC1 |  | inactive: 24%
CC(C)c1cc(-c2cc(C(=O)NCc3ccccc3)on2)nc(NCC2CC2)n1 |  | inactive: -29.9%
CCSc1nnc(NC(=O)C(C)(C)C)s1 | inconclusive: 14.6 µM [activator, partial curve, poor fit] | 
Cc1cc(SCC(=O)Nc2ccc(O)cc2)n2nc(C)c(-c3ccccc3)c2n1 | inconclusive: 25.9 µM [falling, single point] | 
O=Cc1ccc(-c2ccccc2C(=O)O)o1 |  | inactive: -20.6%
C/C=C\C=C\C(=O)N1CC2(CC(c3cccc(NC(=O)COc4ccc(Cl)cc4)c3)=NO2)C[C@H]1C(N)=O (stereo partly drawn) |  | inactive: 1.56%
CCOC(=O)c1ccc(NC(=O)c2ccc(NS(C)(=O)=O)cc2)cc1 | inconclusive: 29.1 µM [falling, partial curve, poor fit] | 
COc1ccc(OC)c(CC2C(=O)Nc3ccc(Br)cc32)c1 (stereo not drawn) | active: 23.1 µM | 
COc1ccc(NC(=S)NCC2CCN(c3ccc(OC)cc3)C2)cc1 (stereo not drawn) | inconclusive: 32.6 µM [falling, single point] | 
Cn1c(C(=O)NCc2ccccc2)cc2oc3ccccc3c21 | inconclusive: 13 µM [activator, partial curve] | 
COC(=O)c1cc2sccc2n1Cc1ccc(F)cc1Cl | inconclusive: 16.4 µM [activator, partial curve] | 
CCOC(=O)c1c(C)oc2ccc(N(C(C)=O)S(=O)(=O)c3c(C)cc(C)cc3C)cc12 |  | inactive: -4.24%
Cc1c(C(=O)Nc2ccc3c(c2)OCO3)sc2nc(-c3ccccc3)cn12 | inconclusive: 3.66 µM [falling, partial curve, poor fit] | 
O=C(O)C(CC1CCCCC1)N1CCS(=O)(=O)CC1 (stereo not drawn) | inconclusive: 1.46 µM [activator, full curve, poor fit] | 
COC(=O)c1oc2c(c1C)C(=O)CC(C)(C)C2 | inconclusive: 29.1 µM [activator, partial curve, poor fit] | 

Retrieved by structure from the list above, 3 records:
Compound | Potency | activity change, negative = inhibition
COc1ccc(NC(=S)NCC2CCN(c3ccc(OC)cc3)C2)cc1 (stereo not drawn) | inconclusive: 32.6 µM [falling, single point] | 
Cc1cc(SCC(=O)Nc2ccc(O)cc2)n2nc(C)c(-c3ccccc3)c2n1 | inconclusive: 25.9 µM [falling, single point] | 
CCOC(=O)c1ccc(NC(=O)c2ccc(NS(C)(=O)=O)cc2)cc1 | inconclusive: 29.1 µM [falling, partial curve, poor fit] | 

Following part.

Compound | Potency | activity change, negative = inhibition
Cc1cc(C(C)(C)C)ccc1NC(=O)CC(C)(C)CC(=O)O | inconclusive: 20.6 µM [activator, single point] | 
N#Cc1ccc(NC(=O)C2Cc3ccccc3CN2S(=O)(=O)c2ccc(F)cc2)cc1 (stereo not drawn) | active: 23.1 µM | 
Cc1c(CN(C)C(=O)CSc2nc(-c3ccco3)cc(C(F)(F)F)n2)cnn1C | active: 16.4 µM | 
Cc1ccc(C(=O)N(CCN2CCCCC2)CC2CCCN(C3CCCC3)C2)s1 (stereo not drawn) | inconclusive: 25.9 µM [activator, partial curve] | 
C[C@@H]1CN(Cc2nc(-c3ccc(Cl)cc3)no2)C[C@H](C)O1 | inconclusive: 11.6 µM [activator, partial curve] | 
Cc1nnc(SC(C)C(=O)Nc2ccc(Cl)cn2)n1Cc1ccccc1 (stereo not drawn) | active: 9.2 µM | 
CC(NC(=O)CSc1nc2sc3c(c2c(=O)n1-c1ccccc1)CCCC3)c1ccccc1 (stereo not drawn) | inconclusive: 20.6 µM [falling, single point] | 
CC(C)(C)c1ccc(NC(=O)N2CCCN(c3ccc([N+](=O)[O-])cn3)CC2)cc1 | inconclusive: 25.9 µM [falling, single point] | 
Cn1c2ccccc2c(=O)c2cc(C#CC3(O)CCCCC3)ccc21 | inconclusive: 0.82 µM [activator, partial curve, poor fit] | 
CC(C)OC(=O)c1cc(NC(=O)c2nn(C)cc2Br)cc(C(=O)OC(C)C)c1 | inconclusive: 7.31 µM [falling, partial curve] | 
Cc1ccc(OCCCCN2CCCCC2)c(C)c1 |  | inactive: 2.47%
COc1ccccc1C(=O)COC(=O)c1cc(=O)[nH]c2ccccc12 | inconclusive: 18.4 µM [activator, single point] | 
S=C(Nc1ccc(-c2nc3ccccc3[nH]2)cc1)Nc1cccnc1 | inconclusive: 2.06 µM [activator, partial curve] | 
COc1cc(C(=O)COC(=O)c2cc([N+](=O)[O-])ccc2N2CCOCC2)ccc1OC(F)F | inconclusive: 14.6 µM [falling, partial curve, poor fit] | 
COc1ccc2c(c1)c(=O)oc1cc(OCC(=O)N3CCc4ccccc4C3)ccc12 | inconclusive: 10.3 µM [falling, partial curve, poor fit] | 
C=CCC1CCCCC12NC(=O)NC2=O (stereo not drawn) |  | inactive: -14.3%
CC(=O)N1c2ccc(S(=O)(=O)N3CCCC(C(=O)NCc4ccc(Cl)cc4)C3)cc2CC1C (stereo not drawn) | active: 8.2 µM | 
COc1ccc(OC)c(NC(=O)NNC(=O)CCCOc2ccc(Cl)cc2C)c1 |  | inactive: -9.78%
CC(C)c1ccc(N2C=Nc3ccc(C(C)C)cc3C2)cc1 | inconclusive: 32.6 µM [falling, single point] | 
O=C(Cc1ccccc1)N/N=C/c1cc(Br)cc(Cl)c1O | inconclusive: 23.1 µM [falling, single point] | 
COc1cccc(NC(=O)Nc2cccn(Cc3ccccc3)c2=O)c1 | active: 11.6 µM | 
